Measured values reported in article PMC11441684, “A suboptimal OCT4-SOX2 binding site facilitates the naïve-state specific function of a Klf4 enhancer”.
The comparison behind a weaker result is the experiment's own reference, which may not be listed here.

Tested on: OCT4 + SOX2
Assay: EMSA
Conditions: 12.5 mM K-Hepes pH 7.6, 50 mM NaCl, 1 mM MgCl2, 10% glycerol, 0.1% NP-40, 0.1 mg/mL BSA, 1 mM DTT, 1 ug/uL poly dG:dC, 2 nM probe, 30 C 15 min, 4% acrylamide gel, recombinant protein, protein details: 6xHis (pSKB3-6H-TEV),6xHis (pSKB3-6H-TEV), label: Cy5 on strand 2 (extended primer S1)

| Sequence | binding result (19 nM OCT4, 16 nM SOX2) | binding result (19 nM OCT4, 16 nM SOX2, most shifted DNA bound only by OCT4) |
| --- | --- | --- |
| GTTACTCTGCAGCTACATCTTCATATAAATGGCCTTGGTGAGACTGG (double strand) [Klf4-E2 OS site probe] | binds more weakly | – |
| GTTACTCTGCAGCTACCTTTGCATATCAAATGCCTTGGTGAGACTGG (double strand) [Klf4-E1 OS site probe] | – | binds more weakly |
